Here are results for 16 targets from the supplement of paper PMC6411743.

Amino acid sequences for entries named in this document (tags omitted). A change or cut given only in a name is not applied to a line headed by its entry.
UniProt Q92466: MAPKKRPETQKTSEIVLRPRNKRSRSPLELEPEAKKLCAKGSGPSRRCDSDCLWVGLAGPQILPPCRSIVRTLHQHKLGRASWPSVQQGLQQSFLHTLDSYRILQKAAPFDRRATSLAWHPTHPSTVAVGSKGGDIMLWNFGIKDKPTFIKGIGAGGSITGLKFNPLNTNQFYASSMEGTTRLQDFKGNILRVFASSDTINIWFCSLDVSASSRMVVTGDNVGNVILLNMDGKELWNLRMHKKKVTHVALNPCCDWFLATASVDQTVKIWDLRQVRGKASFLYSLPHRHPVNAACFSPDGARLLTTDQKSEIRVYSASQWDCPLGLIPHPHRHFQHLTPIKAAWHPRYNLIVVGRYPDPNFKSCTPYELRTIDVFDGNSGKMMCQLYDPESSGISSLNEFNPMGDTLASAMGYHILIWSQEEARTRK
UniProt Q96DU7: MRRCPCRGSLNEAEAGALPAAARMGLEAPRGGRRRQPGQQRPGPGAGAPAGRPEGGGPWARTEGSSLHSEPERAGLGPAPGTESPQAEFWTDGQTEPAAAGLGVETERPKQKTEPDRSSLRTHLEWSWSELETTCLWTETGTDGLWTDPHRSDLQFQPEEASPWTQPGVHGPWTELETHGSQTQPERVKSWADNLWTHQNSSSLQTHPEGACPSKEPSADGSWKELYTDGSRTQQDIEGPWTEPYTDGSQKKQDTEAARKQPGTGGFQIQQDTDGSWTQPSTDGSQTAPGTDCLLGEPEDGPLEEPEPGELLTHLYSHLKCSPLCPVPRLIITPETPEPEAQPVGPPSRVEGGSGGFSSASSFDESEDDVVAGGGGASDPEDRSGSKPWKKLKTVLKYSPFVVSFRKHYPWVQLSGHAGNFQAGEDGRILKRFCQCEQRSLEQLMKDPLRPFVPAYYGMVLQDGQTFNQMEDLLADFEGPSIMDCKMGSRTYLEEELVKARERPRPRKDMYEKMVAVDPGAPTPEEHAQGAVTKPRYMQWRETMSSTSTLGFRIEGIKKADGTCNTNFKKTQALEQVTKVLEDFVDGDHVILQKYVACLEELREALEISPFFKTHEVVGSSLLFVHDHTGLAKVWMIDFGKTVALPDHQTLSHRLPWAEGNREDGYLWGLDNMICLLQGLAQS
UniProt Q96H20: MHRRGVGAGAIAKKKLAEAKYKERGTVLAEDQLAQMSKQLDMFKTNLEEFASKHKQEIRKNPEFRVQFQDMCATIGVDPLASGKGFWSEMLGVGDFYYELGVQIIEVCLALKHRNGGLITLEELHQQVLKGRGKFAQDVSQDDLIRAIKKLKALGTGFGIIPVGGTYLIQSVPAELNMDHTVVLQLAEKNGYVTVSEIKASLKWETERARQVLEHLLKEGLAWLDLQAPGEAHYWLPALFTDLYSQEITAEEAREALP
UniProt Q96CT7: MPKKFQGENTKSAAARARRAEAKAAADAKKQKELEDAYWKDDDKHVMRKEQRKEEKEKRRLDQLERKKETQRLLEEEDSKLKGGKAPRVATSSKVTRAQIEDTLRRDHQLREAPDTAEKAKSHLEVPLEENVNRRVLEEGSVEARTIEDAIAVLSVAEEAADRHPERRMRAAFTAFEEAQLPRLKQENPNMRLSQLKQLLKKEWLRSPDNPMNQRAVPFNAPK
UniProt Q96FK6: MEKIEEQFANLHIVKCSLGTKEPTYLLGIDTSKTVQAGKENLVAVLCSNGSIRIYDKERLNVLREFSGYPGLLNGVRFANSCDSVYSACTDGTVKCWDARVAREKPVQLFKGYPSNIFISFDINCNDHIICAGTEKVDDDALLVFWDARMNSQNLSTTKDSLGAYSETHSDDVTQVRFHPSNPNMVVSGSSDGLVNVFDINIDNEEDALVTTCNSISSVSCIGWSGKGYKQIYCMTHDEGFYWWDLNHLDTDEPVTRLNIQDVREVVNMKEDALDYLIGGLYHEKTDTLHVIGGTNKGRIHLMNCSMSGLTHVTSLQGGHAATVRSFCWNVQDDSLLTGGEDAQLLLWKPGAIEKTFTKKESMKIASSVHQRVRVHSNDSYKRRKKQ
UniProt Q96HE7: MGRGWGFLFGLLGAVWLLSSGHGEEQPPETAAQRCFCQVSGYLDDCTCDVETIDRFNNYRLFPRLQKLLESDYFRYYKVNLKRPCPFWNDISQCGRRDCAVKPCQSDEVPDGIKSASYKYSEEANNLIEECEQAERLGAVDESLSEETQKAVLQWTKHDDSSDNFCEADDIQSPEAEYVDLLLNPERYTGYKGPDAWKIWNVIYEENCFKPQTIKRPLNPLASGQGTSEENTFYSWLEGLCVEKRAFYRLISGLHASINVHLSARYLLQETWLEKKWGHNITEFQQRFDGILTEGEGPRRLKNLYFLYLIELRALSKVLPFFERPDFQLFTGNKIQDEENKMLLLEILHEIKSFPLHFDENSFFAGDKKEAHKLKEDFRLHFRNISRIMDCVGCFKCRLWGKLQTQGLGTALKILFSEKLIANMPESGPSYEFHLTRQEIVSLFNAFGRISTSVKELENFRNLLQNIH
UniProt Q96FS4: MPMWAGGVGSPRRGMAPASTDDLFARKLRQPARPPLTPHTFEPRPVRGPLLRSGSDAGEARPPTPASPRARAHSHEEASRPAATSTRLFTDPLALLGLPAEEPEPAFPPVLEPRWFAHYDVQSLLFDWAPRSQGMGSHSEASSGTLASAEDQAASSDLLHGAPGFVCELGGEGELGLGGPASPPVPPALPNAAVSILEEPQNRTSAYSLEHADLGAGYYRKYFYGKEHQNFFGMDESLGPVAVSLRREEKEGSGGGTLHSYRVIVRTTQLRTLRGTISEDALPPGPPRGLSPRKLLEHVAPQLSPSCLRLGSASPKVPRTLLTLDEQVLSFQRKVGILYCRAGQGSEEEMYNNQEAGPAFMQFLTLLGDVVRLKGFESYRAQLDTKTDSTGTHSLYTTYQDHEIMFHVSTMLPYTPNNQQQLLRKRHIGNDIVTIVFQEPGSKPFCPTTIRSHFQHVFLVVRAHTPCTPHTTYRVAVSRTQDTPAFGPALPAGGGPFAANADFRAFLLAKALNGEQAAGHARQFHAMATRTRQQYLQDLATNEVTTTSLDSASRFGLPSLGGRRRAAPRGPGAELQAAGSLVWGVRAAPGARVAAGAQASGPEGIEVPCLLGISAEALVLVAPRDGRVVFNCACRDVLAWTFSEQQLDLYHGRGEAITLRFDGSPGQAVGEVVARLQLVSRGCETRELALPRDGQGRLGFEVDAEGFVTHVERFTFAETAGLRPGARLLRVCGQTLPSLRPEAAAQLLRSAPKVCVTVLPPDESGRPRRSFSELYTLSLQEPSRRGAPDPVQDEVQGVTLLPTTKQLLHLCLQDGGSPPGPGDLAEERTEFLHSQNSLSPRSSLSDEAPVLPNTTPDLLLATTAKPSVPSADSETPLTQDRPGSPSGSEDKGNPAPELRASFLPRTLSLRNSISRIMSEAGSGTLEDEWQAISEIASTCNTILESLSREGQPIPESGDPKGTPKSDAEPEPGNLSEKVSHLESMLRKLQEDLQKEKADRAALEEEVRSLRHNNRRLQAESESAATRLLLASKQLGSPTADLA
UniProt Q92783: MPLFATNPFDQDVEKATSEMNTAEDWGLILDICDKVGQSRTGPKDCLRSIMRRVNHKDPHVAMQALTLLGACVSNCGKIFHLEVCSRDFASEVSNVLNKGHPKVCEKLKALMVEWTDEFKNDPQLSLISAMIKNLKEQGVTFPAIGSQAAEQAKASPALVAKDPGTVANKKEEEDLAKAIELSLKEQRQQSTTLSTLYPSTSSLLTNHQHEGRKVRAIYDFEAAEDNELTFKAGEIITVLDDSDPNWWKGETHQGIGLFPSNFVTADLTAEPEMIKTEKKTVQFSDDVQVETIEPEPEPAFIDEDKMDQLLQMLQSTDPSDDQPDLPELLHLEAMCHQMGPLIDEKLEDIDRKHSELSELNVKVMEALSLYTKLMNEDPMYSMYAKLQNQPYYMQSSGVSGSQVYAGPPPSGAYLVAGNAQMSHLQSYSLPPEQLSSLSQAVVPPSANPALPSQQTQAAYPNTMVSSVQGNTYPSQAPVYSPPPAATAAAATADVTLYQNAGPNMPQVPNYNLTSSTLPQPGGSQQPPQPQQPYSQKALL
UniProt Q96B97, whole entry: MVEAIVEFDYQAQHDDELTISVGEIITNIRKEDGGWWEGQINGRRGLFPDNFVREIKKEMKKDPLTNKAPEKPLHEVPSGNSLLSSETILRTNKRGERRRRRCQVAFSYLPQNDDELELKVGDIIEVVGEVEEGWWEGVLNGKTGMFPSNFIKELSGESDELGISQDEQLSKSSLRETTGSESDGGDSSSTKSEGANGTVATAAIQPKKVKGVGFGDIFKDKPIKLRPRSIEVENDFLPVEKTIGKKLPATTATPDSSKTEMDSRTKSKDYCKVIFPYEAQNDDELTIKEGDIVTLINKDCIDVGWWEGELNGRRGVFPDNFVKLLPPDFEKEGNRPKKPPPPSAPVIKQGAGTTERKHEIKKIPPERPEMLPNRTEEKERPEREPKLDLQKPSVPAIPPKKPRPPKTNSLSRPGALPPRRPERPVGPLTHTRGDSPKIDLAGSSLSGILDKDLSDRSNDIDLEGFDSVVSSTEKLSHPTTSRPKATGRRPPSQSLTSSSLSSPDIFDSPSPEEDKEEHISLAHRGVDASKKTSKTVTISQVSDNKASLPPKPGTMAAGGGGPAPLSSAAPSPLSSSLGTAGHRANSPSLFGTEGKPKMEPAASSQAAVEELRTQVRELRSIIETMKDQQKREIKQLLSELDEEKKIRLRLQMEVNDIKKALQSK
UniProt Q92833: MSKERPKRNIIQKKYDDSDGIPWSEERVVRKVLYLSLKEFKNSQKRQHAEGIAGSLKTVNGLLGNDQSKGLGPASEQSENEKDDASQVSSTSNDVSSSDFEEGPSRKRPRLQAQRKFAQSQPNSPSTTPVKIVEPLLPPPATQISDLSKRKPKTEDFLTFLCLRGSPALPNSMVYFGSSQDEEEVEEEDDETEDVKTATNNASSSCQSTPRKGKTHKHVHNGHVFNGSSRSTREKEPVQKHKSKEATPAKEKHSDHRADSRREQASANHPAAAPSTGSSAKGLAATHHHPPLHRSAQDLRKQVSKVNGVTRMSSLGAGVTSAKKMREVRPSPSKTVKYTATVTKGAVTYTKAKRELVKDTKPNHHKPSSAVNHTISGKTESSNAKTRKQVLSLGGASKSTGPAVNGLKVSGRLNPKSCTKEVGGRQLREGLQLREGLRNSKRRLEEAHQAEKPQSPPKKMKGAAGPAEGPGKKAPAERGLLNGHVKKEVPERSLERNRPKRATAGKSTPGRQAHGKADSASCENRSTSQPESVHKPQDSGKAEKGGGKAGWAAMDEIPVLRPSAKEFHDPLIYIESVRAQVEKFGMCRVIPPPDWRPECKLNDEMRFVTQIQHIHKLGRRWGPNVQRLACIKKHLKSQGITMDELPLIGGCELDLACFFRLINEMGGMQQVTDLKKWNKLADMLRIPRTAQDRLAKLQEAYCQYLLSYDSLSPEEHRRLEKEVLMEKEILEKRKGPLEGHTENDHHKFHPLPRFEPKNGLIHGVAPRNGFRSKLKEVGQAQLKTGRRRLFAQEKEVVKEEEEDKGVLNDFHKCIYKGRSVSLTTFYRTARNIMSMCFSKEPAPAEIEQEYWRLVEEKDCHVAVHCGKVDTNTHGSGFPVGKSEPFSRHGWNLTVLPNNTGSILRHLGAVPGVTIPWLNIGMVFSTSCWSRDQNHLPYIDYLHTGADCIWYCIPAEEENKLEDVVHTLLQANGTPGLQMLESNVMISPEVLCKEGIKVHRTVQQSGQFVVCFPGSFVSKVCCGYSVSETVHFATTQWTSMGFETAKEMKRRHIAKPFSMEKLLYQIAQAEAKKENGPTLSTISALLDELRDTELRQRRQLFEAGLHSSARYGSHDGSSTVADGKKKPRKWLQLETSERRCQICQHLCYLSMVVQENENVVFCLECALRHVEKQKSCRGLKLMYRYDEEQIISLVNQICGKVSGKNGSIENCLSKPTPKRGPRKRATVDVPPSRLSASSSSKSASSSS
UniProt Q92990: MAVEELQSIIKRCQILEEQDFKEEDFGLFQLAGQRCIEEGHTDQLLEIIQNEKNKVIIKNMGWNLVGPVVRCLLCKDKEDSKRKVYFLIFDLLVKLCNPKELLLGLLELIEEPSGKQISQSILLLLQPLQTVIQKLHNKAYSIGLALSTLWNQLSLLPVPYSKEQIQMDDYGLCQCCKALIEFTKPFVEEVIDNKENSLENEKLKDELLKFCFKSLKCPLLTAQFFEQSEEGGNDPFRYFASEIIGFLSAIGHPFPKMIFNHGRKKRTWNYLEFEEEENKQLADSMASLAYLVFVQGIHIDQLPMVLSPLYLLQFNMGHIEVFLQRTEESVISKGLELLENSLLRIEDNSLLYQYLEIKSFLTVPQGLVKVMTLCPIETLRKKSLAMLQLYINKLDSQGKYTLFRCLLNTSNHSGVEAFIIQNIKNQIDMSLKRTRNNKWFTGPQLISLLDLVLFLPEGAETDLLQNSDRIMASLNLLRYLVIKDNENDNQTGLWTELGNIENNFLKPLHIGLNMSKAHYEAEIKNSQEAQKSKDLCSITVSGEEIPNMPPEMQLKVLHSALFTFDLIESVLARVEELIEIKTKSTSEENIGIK

± gives the standard deviation of the averaged measurements. The list shows a part of the results.

Compound in this test: Nc1nc2c(ncn2[C@@H]2O[C@H](COP(=O)(O)OP(=O)(O)OP(=O)(O)O)[C@@H](O)[C@H]2O)c(=O)[nH]1 [guanosine triphosphate]
Description: NP40-soluble protein abundance relative to vehicle (solubility fold change) (ratio); higher = more soluble protein in presence of GTP. The essentials:
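Jurkat crude lysate (Dounce-homogenised) was treated with eight concentrations from 0.1 to 10 mM for 10 min at room temperature, then 3 min at 37 °C. It was solubilised with 0.8% NP40 and benzonase (60 min, 4 °C) and ultracentrifuged, and the supernatant was TMT-labelled for LC-MS/MS. Intensities were vsn-normalised, and the value is the fold change against the NP40-processed vehicle per replicate, from three independent experiments.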

Take UniProt Q92466 and related entries: the NP40-soluble protein abundance reads like this: (concentration: 0.1mM) 1.09 ± 0.068; (concentration: 0.5mM) 1.11 ± 0.077; (concentration: 1mM) 1.11 ± 0.052; (concentration: 2mM) 1.17 ± 0.12; (concentration: 4mM) 1.21 ± 0.13; (concentration: 6mM) 1.17 ± 0.11. The NP40-soluble protein abundance (concentration: 8mM) stood at 1.2 ± 0.15 and the NP40-soluble protein abundance (concentration: 10mM) worked out at 1.17 ± 0.11.
With UniProt Q96FJ2, the NP40-soluble protein abundance reads like this: (concentration: 0.1mM) 0.875 ± 0.063; (concentration: 0.5mM) 0.83 ± 0.033; (concentration: 1mM) 1.07 ± 0.12; (concentration: 2mM) 1.06 ± 0.081; (concentration: 4mM) 1.18 ± 0.1; (concentration: 6mM) 1.03 ± 0.11. Moreover, the NP40-soluble protein abundance is, setting by setting: (concentration: 8mM) 1.05 ± 0.087; (concentration: 10mM) 1.18 ± 0.17.
With UniProt Q8WUQ7 and related entries, the NP40-soluble protein abundance (concentration: 0.1mM) came out at 0.975 ± 0.11; the NP40-soluble protein abundance (concentration: 0.5mM) was found to be 1.02 ± 0.12; the NP40-soluble protein abundance (concentration: 1mM) turned out to be 0.967 ± 0.13; the NP40-soluble protein abundance (concentration: 2mM) amounted to 1.02 ± 0.14; the NP40-soluble protein abundance (concentration: 4mM) worked out at 1.09 ± 0.13; the NP40-soluble protein abundance (concentration: 6mM) stood at 1.12 ± 0.095. Besides, the NP40-soluble protein abundance runs as follows: (concentration: 8mM) 1.12 ± 0.03; (concentration: 10mM) 1.19 ± 0.11.
For ITPKC (UniProt Q96DU7), the NP40-soluble protein abundance worked out at 1.03 ± 0.037 (concentration: 0.1mM); 1.06 ± 0.16 (concentration: 0.5mM); 0.996 ± 0.074 (concentration: 1mM); 0.991 ± 0.043 (concentration: 2mM); 0.884 ± 0.025 (concentration: 4mM); 1.02 ± 0.12 (concentration: 6mM). The NP40-soluble protein abundance is, setting by setting: (concentration: 8mM) 1.02 ± 0.025; (concentration: 10mM) 0.98 ± 0.049.
For the target UniProt Q96H20 and related entries, the NP40-soluble protein abundance is, setting by setting: (concentration: 0.1mM) 0.98 ± 0.027; (concentration: 0.5mM) 0.913 ± 0.035; (concentration: 1mM) 0.98 ± 0.059; (concentration: 2mM) 0.943 ± 0.061; (concentration: 4mM) 0.947 ± 0.075; (concentration: 6mM) 0.907 ± 0.071. Moreover, the NP40-soluble protein abundance runs as follows: (concentration: 8mM) 0.909 ± 0.14; (concentration: 10mM) 0.893 ± 0.058.
For the target CCDC124 (UniProt Q96CT7), the NP40-soluble protein abundance (concentration: 0.1mM) was determined as 1.01 ± 0.047; the NP40-soluble protein abundance (concentration: 0.5mM) came out at 0.984 ± 0.019; the NP40-soluble protein abundance (concentration: 1mM) amounted to 1.12 ± 0.063; the NP40-soluble protein abundance (concentration: 2mM) amounted to 1.17 ± 0.067; the NP40-soluble protein abundance (concentration: 4mM) was 1.41 ± 0.17; the NP40-soluble protein abundance (concentration: 6mM) was 1.57 ± 0.22. Besides, the NP40-soluble protein abundance reads like this: (concentration: 8mM) 1.61 ± 0.22; (concentration: 10mM) 2.24 ± 0.18.
As for WDR89 (UniProt Q96FK6), the NP40-soluble protein abundance runs as follows: (concentration: 0.1mM) 1.06 ± 0.077; (concentration: 0.5mM) 1.09 ± 0.065; (concentration: 1mM) 1.12 ± 0.048; (concentration: 2mM) 1.15 ± 0.079; (concentration: 4mM) 1.18 ± 0.043; (concentration: 6mM) 1.31 ± 0.022. In addition, the NP40-soluble protein abundance stood at 1.28 ± 0.069 (concentration: 8mM) and 1.25 ± 0.1 (concentration: 10mM).
Regarding UniProt Q96HE7, the NP40-soluble protein abundance runs as follows: (concentration: 0.1mM) 0.994 ± 0.011; (concentration: 0.5mM) 0.977 ± 0.021; (concentration: 1mM) 0.955 ± 0.018; (concentration: 2mM) 0.94 ± 0.04; (concentration: 4mM) 0.898 ± 0.059; (concentration: 6mM) 0.906 ± 0.048. Besides, the NP40-soluble protein abundance stood at 0.893 ± 0.054 (concentration: 8mM) and 0.874 ± 0.066 (concentration: 10mM).
As for SIPA1 (UniProt Q96FS4), the NP40-soluble protein abundance is, setting by setting: (concentration: 0.1mM) 1.03 ± 0.12; (concentration: 0.5mM) 1.03 ± 0.079; (concentration: 1mM) 1.08 ± 0.057; (concentration: 2mM) 1.12 ± 0.1; (concentration: 4mM) 1.09 ± 0.14; (concentration: 6mM) 1.22 ± 0.15. Further, the NP40-soluble protein abundance reads like this: (concentration: 8mM) 1.26 ± 0.079; (concentration: 10mM) 1.13 ± 0.067.
LEO1 (UniProt Q8WVC0): the NP40-soluble protein abundance reads like this: (concentration: 0.1mM) 0.97 ± 0.092; (concentration: 0.5mM) 0.98 ± 0.091; (concentration: 1mM) 0.983 ± 0.09; (concentration: 2mM) 0.952 ± 0.099; (concentration: 4mM) 0.965 ± 0.098; (concentration: 6mM) 0.934 ± 0.07. Besides, the NP40-soluble protein abundance came to 0.928 ± 0.1 (concentration: 8mM) and 0.846 ± 0.14 (concentration: 10mM).
In the case of UniProt Q92783 and related entries, the NP40-soluble protein abundance was found to be 0.902 ± 0.019 (concentration: 0.1mM); 0.921 ± 0.042 (concentration: 0.5mM); 0.944 ± 0.024 (concentration: 1mM); 0.906 ± 0.075 (concentration: 2mM); 0.879 ± 0.084 (concentration: 4mM); 0.913 ± 0.069 (concentration: 6mM). Besides, the NP40-soluble protein abundance is, setting by setting: (concentration: 8mM) 0.903 ± 0.055; (concentration: 10mM) 0.913 ± 0.058.
As to MARS2 (UniProt Q96GW9), the NP40-soluble protein abundance reads like this: (concentration: 0.1mM) 1.03 ± 0.033; (concentration: 0.5mM) 1.05 ± 0.053; (concentration: 1mM) 0.943 ± 0.096; (concentration: 2mM) 0.967 ± 0.05; (concentration: 4mM) 0.991 ± 0.052; (concentration: 6mM) 0.937 ± 0.037. Besides, the NP40-soluble protein abundance is, setting by setting: (concentration: 8mM) 0.938 ± 0.079; (concentration: 10mM) 0.917 ± 0.073.
Take PTCD3 (UniProt Q96EY7): the NP40-soluble protein abundance was 1.06 ± 0.036 (concentration: 0.1mM); 1.16 ± 0.15 (concentration: 0.5mM); 1.18 ± 0.18 (concentration: 1mM); 1.26 ± 0.21 (concentration: 2mM); 1.28 ± 0.27 (concentration: 4mM); 1.2 ± 0.26 (concentration: 6mM). Also, the NP40-soluble protein abundance worked out at 1.18 ± 0.23 (concentration: 8mM) and 1.12 ± 0.22 (concentration: 10mM).
For UniProt Q96B97 and related entries, the NP40-soluble protein abundance worked out at 0.941 ± 0.12 (concentration: 0.1mM); 0.938 ± 0.1 (concentration: 0.5mM); 0.962 ± 0.1 (concentration: 1mM); 0.943 ± 0.13 (concentration: 2mM); 0.949 ± 0.1 (concentration: 4mM); 0.935 ± 0.098 (concentration: 6mM). For the same target, the NP40-soluble protein abundance came to 0.982 ± 0.11 (concentration: 8mM) and 0.966 ± 0.12 (concentration: 10mM).
As for JARID2 (UniProt Q92833), the NP40-soluble protein abundance was 0.971 ± 0.078 (concentration: 0.1mM); 1.07 ± 0.11 (concentration: 0.5mM); 1.09 ± 0.088 (concentration: 1mM); 1.08 ± 0.087 (concentration: 2mM); 1.05 ± 0.04 (concentration: 4mM); 1.05 ± 0.088 (concentration: 6mM). The NP40-soluble protein abundance came out at 1.18 ± 0.04 (concentration: 8mM) and 1.15 ± 0.026 (concentration: 10mM).
On to GLMN (UniProt Q92990), for which the NP40-soluble protein abundance was determined as 1.02 ± 0.084 (concentration: 0.1mM); 0.988 ± 0.048 (concentration: 0.5mM); 0.964 ± 0.063 (concentration: 1mM); 0.968 ± 0.059 (concentration: 2mM); 0.941 ± 0.09 (concentration: 4mM); 0.938 ± 0.082 (concentration: 6mM). Moreover, the NP40-soluble protein abundance amounted to 0.904 ± 0.065 (concentration: 8mM) and 0.888 ± 0.082 (concentration: 10mM).
